Values of other authors as cited in publication PMC11045845 (Nature Communications, 2024).

Settings: DMPC multi-bilayers

Substance | tilt angle
cyclo[(L-Trp-D-Leu)3-L-Gln-D-Leu] | 7 °
gramicidin A | 15 °
